# Results as given in patent publication US9839640B2, “Methods of treating eye diseases associated with inflammation and vascular proliferation” (OccuRx Pty Ltd, priority 2010, dated 2017).
# Experiments:
# Assay type in all cases: in vivo, rat
# [1] = Animal characteristics (8 weeks study), STZ diabetic (mRen-2) 27 rats treated with FT011; details: FT011 200 mg/kg/day (100 mg/kg bid gavage)
# Method: Ninety, six-week old female, heterozygous (mRen-2) 27 rats (St. Vincent's Hospital Animal House, Melbourne, Australia) were assigned to receive either 55 mg/kg of streptozotocin (STZ) (Sigma, St. Louis, USA) diluted in 0.1 M citrate buffer, pH 4.5 or citrate buffer alone (non-diabetic control) by tail vein injection following an overnight fast. In short term study, rats were randomly assigned to receive (n=10/group) treatment with either FT011 (100 mg/kg bid gavage) or vehicle for 8 weeks. Non-diabetic animals (n=10) served as controls. In the long term study, at 16 weeks of STZ diabetes rats were randomly assigned to either treatment (n=15/group) with, FT011 (50 mg/kg/day BID), FT011 (100 mg/kg BID) or no treatment for a further 16 weeks. Non-diabetic animals (n=15) served as controls. Each week, rats were weighed and their blood glucose levels were measured (Accu-check Advantage II Blood Glucose Monitor, Roche Diagnostics, USA) and only STZ-treated animals with blood glucose >15 mmol/L were considered diabetic. Every 4 weeks, SBP was determined in preheated conscious rats via tail-cuff plethysmography using a non-invasive blood pressure (NIBP) controller and Powerlab (AD instruments, NSW, Australia). Haemoglobin A1c (HbA1c) was measured by HPLC at the end of the study in the Department of Pathology, St Vincent's Hospital. […]
# [2] = Animal characteristics (32 weeks study), STZ diabetic (mRen-2) 27 rats treated with FT011
# Method: Ninety, six-week old female, heterozygous (mRen-2) 27 rats (St. Vincent's Hospital Animal House, Melbourne, Australia) were assigned to receive either 55 mg/kg of streptozotocin (STZ) (Sigma, St. Louis, USA) diluted in 0.1 M citrate buffer, pH 4.5 or citrate buffer alone (non-diabetic control) by tail vein injection following an overnight fast. In short term study, rats were randomly assigned to receive (n=10/group) treatment with either FT011 (100 mg/kg bid gavage) or vehicle for 8 weeks. Non-diabetic animals (n=10) served as controls. In the long term study, at 16 weeks of STZ diabetes rats were randomly assigned to either treatment (n=15/group) with, FT011 (50 mg/kg/day BID), FT011 (100 mg/kg BID) or no treatment for a further 16 weeks. Non-diabetic animals (n=15) served as controls. Each week, rats were weighed and their blood glucose levels were measured (Accu-check Advantage II Blood Glucose Monitor, Roche Diagnostics, USA) and only STZ-treated animals with blood glucose >15 mmol/L were considered diabetic. Every 4 weeks, SBP was determined in preheated conscious rats via tail-cuff plethysmography using a non-invasive blood pressure (NIBP) controller and Powerlab (AD instruments, NSW, Australia). Haemoglobin A1c (HbA1c) was measured by HPLC at the end of the study in the Department of Pathology, St Vincent's Hospital. Diabetic rats received a daily injection of insulin (2-4 units intraperitoneally; Humulin NPH, Eli Lilly and Co., Indianapolis, Ind.) to reduce mortality and to promote weight gain.
# [3] = Animal characteristics, STZ diabetic (mRen-2) 27 rats treated with FT061; details: FT061 100 mg/kg/day gavage, 8 weeks
# Method: Sixty, six-week old female, heterozygous (mRen-2) 27 rats (St. Vincent's Hospital Animal House, Melbourne, Australia) were assigned to receive either 55 mg/kg of streptozotocin (STZ) (Sigma, St. Louis, USA) diluted in 0.1 M citrate buffer, pH 4.5 or citrate buffer alone (non-diabetic control) by tail vein injection following an overnight fast. Rats were randomly assigned to receive (n=15/group) treatment with either FT061 (100 mg/kg/day gavage) or vehicle for 8 weeks. Non-diabetic animals (n=15) served as controls. Each week, rats were weighed and their blood glucose levels were measured (Accu-check Advantage II Blood Glucose Monitor, Roche Diagnostics, USA) and only STZ-treated animals with blood glucose >15 mmol/L were considered diabetic. Every 4 weeks, SBP was determined in preheated conscious rats via tail-cuff plethysmography using a non-invasive blood pressure (NIBP) controller and Powerlab (AD instruments, NSW, Australia). Diabetic rats received a daily injection of insulin (2-4 units intraperitoneally; Humulin NPH, Eli Lilly and Co., Indianapolis, Ind.) to reduce mortality and to promote weight gain.
# [4] = FT011 200 mk/kg/day, 32 weeks study
smiles,measurement,setting,value
C#CCOc1ccc(/C=C/C(=O)Nc2ccccc2C(=O)O)cc1OC [FT011],Body Weight,[1]; mean ± SEM,278 ± 12 g
same,SBP,[1]; tail-cuff,190 ± 14 mmHg
same,SBP,"[2]; FT011 100 mk/kg/day, 32 weeks study",176 ± 10 mmHg
same,Body Weight,"[2]; FT011 100 mk/kg/day, 32 weeks study (treated from week 16 for 16 weeks)",322 ± 8 g
same,Body Weight,[2]; [4],313 ± 9 g
same,SBP,[2]; [4],170 ± 7 mmHg
O=C(/C=C/c1ccc(OC(F)F)c(OC(F)F)c1)Nc1ccccc1C(=O)O [FT061],SBP,[3],178 ± 4 mmHg
same,Body Weight,[3]; P < 0.05 versus control,282 ± 4 g
